PubChem BioAssay AID652259 – Drosophila RNAi Screening Center – 2013
In all, the deposit lists about 22,000 reagents; below is an unselected part of those that have a named target and a result. In the full data, 233 (1.1%) got an active call. 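Light values are raw, unnormalised plate reads; the ratio scores behind the reporter calls were not deposited.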 Names joined by + are all predicted targets of the reagent. The record does not give: the amount of reagent, the time to read-out, the dose of the treatment.

Purpose: 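Knock-downs that push a Wingless-driven reporter up or down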 (primary screen)
Cells: Drosophila clone 8 imaginal disc epithelial cells
Reagents: long dsRNA against Drosophila genes
Treatment: pathway stimulated by co-transfected Wingless expression plasmid
Read-out: 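Dual luciferase reads per well after Wingless plasmid stimulation: reporter firefly light and Renilla control light; activity is firefly divided by Renilla, a ratio not deposited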
Reading the numbers: firefly reporter light: higher = more Wg reporter light, before normalisation; Renilla control light: higher = more transfected or surviving cells
Active means: 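a knock-down is a candidate when at least two out of four statistical tests show it departing from its plate mean; one test alone signals a weak candidate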
Meaning of the calls: active = candidate regulator (raises or lowers reporter); inactive = not a candidate

Target gene	PubChem SID	reporter change call, replicate 1	firefly reporter light, replicate 1	firefly reporter light, replicate 2	Renilla control light, replicate 1	Renilla control light, replicate 2	Call
lncRNA:CR32368	SID104188691		4694		1882		inactive
Schip1	SID104182643		1745	8033	885	3632	inactive
AANATL6	SID104186565		6819		2247		inactive
Cka	SID104183268		3943	8955	1600	4752	inactive
Cka	SID104202217		6.51e5	6.37e5	1.60e5	1.88e5	inactive
hzg	SID104190341	Wg reporter activity raised	9484		1456		active
NSD	SID104195483		5788		2832		inactive
fd3F + CR42499	SID104197952		19585		11792		inactive
fd3F + CR42499	SID104197953		20208		10449		inactive
Pex5	SID104198344		20804		12416		inactive
CG31106	SID104194447		13104		10306		inactive
asRNA:CR43463 + Pgant35A	SID104183349		3717	9836	1529	4672	inactive
Nha2	SID104194481		17824		14210		inactive
Nha2	SID104195411		2212	4480	946	922	inactive
Nha2	SID104195415		22896		21596		inactive
CG43234 (retired record)	SID104181578		18296		9258		inactive
Ranbp16	SID104199952		23840		11241		inactive
Elp1	SID104194042		6515		2481		inactive
CG15111	SID104201204		5.82e5	6.70e5	2.82e5	2.34e5	inactive
Cpr49Aa	SID104186989		5860		2680		inactive
Su(var)2-HP2	SID104185996		13728		3513		inactive
CG11664	SID104198442		15696		14337		inactive
CG6479	SID104190439		3012		1011		inactive
CG11593	SID104187998		3914		1907		inactive
alpha-PheRS	SID104198016		2353	6258	889	1702	inactive
Naa80	SID104196221		19611		3100		inactive
CG34008	SID104193220		2683		1289		inactive
CG4161	SID104181722		1992	4784	1037	2716	inactive
CG7031	SID104195970	Wg reporter activity raised	25335		4121		active
Snx17	SID104182676		8416		3586		inactive
CG12831	SID104185971		2400	5211	861	3504	inactive
CG11155	SID104196976		4274		1680		inactive
CG11155	SID104196997		2227	5226	873	1604	inactive
Sox21b	SID104189817		6631		2300		inactive
Sox21b	SID104190426		7722		885		inactive
Sox21b	SID104202147		8.07e5	8.08e5	1.09e5	1.74e5	inactive
CG40498	SID104187578		18880		10800		inactive
EMC7	SID104186954		7075		2372		inactive
ND-20L	SID104195206		8886		4019		inactive
CG3548	SID104184179		10923		2932		inactive
kay	SID104193754		4757		1728		inactive
kay	SID104194840		6224		697		inactive
kay	SID104196769		2396	4960	672	967	inactive
CG30355	SID104201570		4.79e5	5.03e5	1.88e5	1.87e5	inactive
Naa15-16	SID104199232		4118	6396	1680	1770	inactive
Naa15-16	SID104202205		7.84e5	8.62e5	2.32e5	3.20e5	inactive
CG17776	SID104197928		22093		15350		inactive
CG3107	SID104184680		14368		4194		inactive
mwh	SID104187741		1888		872		inactive
mwh	SID104188174		3987		2210		inactive
CG14826	SID104189989		2425	5110	1479	2761	inactive

Next part (10 carried over from the part before).
Target gene	PubChem SID	reporter change call, replicate 1	firefly reporter light, replicate 1	firefly reporter light, replicate 2	Renilla control light, replicate 1	Renilla control light, replicate 2	Call
kay	SID104194840		6224		697		inactive
kay	SID104196769		2396	4960	672	967	inactive
CG30355	SID104201570		4.79e5	5.03e5	1.88e5	1.87e5	inactive
Naa15-16	SID104199232		4118	6396	1680	1770	inactive
Naa15-16	SID104202205		7.84e5	8.62e5	2.32e5	3.20e5	inactive
CG17776	SID104197928		22093		15350		inactive
CG3107	SID104184680		14368		4194		inactive
mwh	SID104187741		1888		872		inactive
mwh	SID104188174		3987		2210		inactive
CG14826	SID104189989		2425	5110	1479	2761	inactive
Pex11ab	SID104186937		5243		1682		inactive
CG30479	SID104186527		4887		2762		inactive
mRpS22	SID104194280		2112	7656	923	2077	inactive
DppIII	SID104196033		17885		5408		inactive
CG42588	SID104189612		6940		3275		inactive
CG42588	SID104201679		8.08e5	8.28e5	3.56e5	4.34e5	inactive
Gcat	SID104189511		8938		3362		inactive
Amy-p	SID104186578		4809		1817		inactive
Ugt35E2	SID104195875		14605		4402		inactive
CG8298	SID104186930		9229		2747		inactive
CG10559	SID104194047		14250		16501		inactive
CG10555	SID104197540		30245		8056		inactive
CG3402	SID104188359		18305		5691		inactive
CG1582	SID104199524		1869	6619	793	2812	inactive
Rat1	SID104181836		8100		3865		inactive
Vps50	SID104186702		14116		3872		inactive
amon	SID104193576		3124		1573		inactive
amon	SID104196692		7472		3216		inactive
Rbf	SID104198496		2640	5878	1205	2208	inactive
RpS2	SID104183406		5653		1053		inactive
Taf4	SID104191089	Wg reporter activity raised	19981		864		active
CG13603	SID104194398		2932	3624	900	1560	inactive
mei-217 + mei-218	SID104200141		20445		10922		inactive
CG13024	SID104189696		7952		3376		inactive
CG43219	SID104191264		4553		1894		inactive
CG5196	SID104195527		16628		3592		inactive
UQCR-C2	SID104190197		9072		2977		inactive
aralar1	SID104193779		2989		1025		inactive
aralar1	SID104196693		1488	5076	713	1162	inactive
CG3119	SID104180361		2531	6608	1027	2347	inactive
VhaPPA1-2	SID104195968		15460		2845		inactive
Non1	SID104185746		7072		1548		inactive
MAN1	SID104184134		11137		3724		inactive
CG31142	SID104193439		3245		1429		inactive
Ufd4	SID104182663		1885	6800	696	3296	inactive
Cdc45	SID104197539		2470	5622	897	1652	inactive
Cdc45	SID104197956		22016		19328		inactive
CR11023	SID104180094		3539	8128	969	2939	inactive
DCTN6-p27	SID104182401		4440	13843	1161	4448	inactive
DCTN6-p27	SID104202169		4.97e5	5.06e5	2.21e5	2.83e5	inactive
pelo	SID104183380		5476		1840		inactive
Oatp33Ea	SID104182651		6312		2632		inactive
